Laboratory results taken from doi:10.1101/152850 (bioRxiv, 2017).
Results are given in words; binding and its absence hold for the method and conditions named. Values belong to the binder of their own block, whether it stands above or below them.

Key:
human IFIT5 (human) = human IFIT5 (human) (UniProt Q13325); experiment: SEC
[1] = molecular target: human IFIT1 L457E (human) (UniProt P09914); experiment: SEC
[2] = molecular target: human IFIT1 Y460E (human) (UniProt P09914); experiment: SEC
[3] = molecular target: human IFIT1 L464E (human) (UniProt P09914); experiment: SEC
[4] = molecular target: human IFIT1 L457A/L464A (IFIT1^DM-A) (human) (UniProt P09914); experiment: SEC
[5] = molecular target: human IFIT1 L457E/L464E (IFIT1^DM-E) (human) (UniProt P09914); experiment: AUC
[6] = molecular target: human IFIT1 L457E/L464E (IFIT1^DM-E) (human) (UniProt P09914); experiment: SEC-MALS
[7] = molecular target: human IFIT1 L457E/L464E (IFIT1^DM-E) (human) (UniProt P09914); experiment: SEC

binding (human IFIT5 (human)): no binding (tested: 2 mg/ml)
B1: human IFIT5 (protein, UniProt Q13325 1-482)
chain: MSEIRKDTLKAILLELECHFTWNLLKEDIDLFEVEDTIGQQLEFLTTKSRLALYNLLAYVKHLKGQNKDALECLEQAEEIIQQEHSDKEEVRSLVTWGNYAWVYYHMDQLEEAQKYTGKIGNVCKKLSSPSNYKLECPETDCEKGWALLKFGGKYYQKAKAAFEKALEVEPDNPEFNIGYAITVYRLDDSDREGSVKSFSLGPLRKAVTLNPDNSYIKVFLALKLQDVHAEAEGEKYIEEILDQISSQPYVLRYAAKFYRRKNSWNKALELLKKALEVTPTSSFLHHQMGLCYRAQMIQIKKATHNRPKGKDKLKVDELISSAIFHFKAAMERDSMFAFAYTDLANMYAEGGQYSNAEDIFRKALRLENITDDHKHQIHYHYGRFQEFHRKSENTAIHHYLEALKVKDRSPLRTKLTSALKKLSTKRLCHNALDVQSLSALGFVYKLEGEKRQAAEYYEKAQKIDPENAEFLTALCELRLSI

binding [1]: no binding (tested: 2 mg/ml (~ 36 μM))
B2: human IFIT1 L457E (protein, UniProt P09914 1-478)
chain: MSTNGDDHQVKDSLEQLRCHFTWELSIDDDEMPDLENRVLDQIEFLDTKYSVGIHNLLAYVKHLKGQNEEALKSLKEAENLMQEEHDNQANVRSLVTWGNFAWMYYHMGRLAEAQTYLDKVENICKKLSNPFRYRMECPEIDCEEGWALLKCGGKNYERAKACFEKVLEVDPENPESSAGYAISAYRLDGFKLATKNHKPFSLLPLRQAVRLNPDNGYIKVLLALKLQDEGQEAEGEKYIEEALANMSSQTYVFRYAAKFYRRKGSVDKALELLKKALQETPTSVLLHHQIGLCYKAQMIQIKEATKGQPRGQNREKLDKMIRSAIFHFESAVEKKPTFEVAHLDLARMYIEAGNHRKAEENFQKLLCMKPVVEETMQDIHFHYGRFQEFQKKSDVNAIIHYLKAIKIEQASLTRDKSINSLKKLVLRKLRRKALDLESLSLLGFVYKLEGNMNEAEEYYERALRLAADFENSVRQGP

binding [2]: no binding (tested: 2 mg/ml (~ 36 μM))
B3: human IFIT1 Y460E (protein, UniProt P09914 1-478)
chain: MSTNGDDHQVKDSLEQLRCHFTWELSIDDDEMPDLENRVLDQIEFLDTKYSVGIHNLLAYVKHLKGQNEEALKSLKEAENLMQEEHDNQANVRSLVTWGNFAWMYYHMGRLAEAQTYLDKVENICKKLSNPFRYRMECPEIDCEEGWALLKCGGKNYERAKACFEKVLEVDPENPESSAGYAISAYRLDGFKLATKNHKPFSLLPLRQAVRLNPDNGYIKVLLALKLQDEGQEAEGEKYIEEALANMSSQTYVFRYAAKFYRRKGSVDKALELLKKALQETPTSVLLHHQIGLCYKAQMIQIKEATKGQPRGQNREKLDKMIRSAIFHFESAVEKKPTFEVAHLDLARMYIEAGNHRKAEENFQKLLCMKPVVEETMQDIHFHYGRFQEFQKKSDVNAIIHYLKAIKIEQASLTRDKSINSLKKLVLRKLRRKALDLESLSLLGFVYKLEGNMNEALEYEERALRLAADFENSVRQGP

binding [3]: no binding (tested: 2 mg/ml (~ 36 μM))
B4: human IFIT1 L464E (protein, UniProt P09914 1-478)
chain: MSTNGDDHQVKDSLEQLRCHFTWELSIDDDEMPDLENRVLDQIEFLDTKYSVGIHNLLAYVKHLKGQNEEALKSLKEAENLMQEEHDNQANVRSLVTWGNFAWMYYHMGRLAEAQTYLDKVENICKKLSNPFRYRMECPEIDCEEGWALLKCGGKNYERAKACFEKVLEVDPENPESSAGYAISAYRLDGFKLATKNHKPFSLLPLRQAVRLNPDNGYIKVLLALKLQDEGQEAEGEKYIEEALANMSSQTYVFRYAAKFYRRKGSVDKALELLKKALQETPTSVLLHHQIGLCYKAQMIQIKEATKGQPRGQNREKLDKMIRSAIFHFESAVEKKPTFEVAHLDLARMYIEAGNHRKAEENFQKLLCMKPVVEETMQDIHFHYGRFQEFQKKSDVNAIIHYLKAIKIEQASLTRDKSINSLKKLVLRKLRRKALDLESLSLLGFVYKLEGNMNEALEYYERAERLAADFENSVRQGP

binding [4]: no binding (tested: 2 mg/ml (~ 36 μM))
B5: human IFIT1 L457A/L464A (IFIT1^DM-A) (protein, UniProt P09914 1-478)
chain: MSTNGDDHQVKDSLEQLRCHFTWELSIDDDEMPDLENRVLDQIEFLDTKYSVGIHNLLAYVKHLKGQNEEALKSLKEAENLMQEEHDNQANVRSLVTWGNFAWMYYHMGRLAEAQTYLDKVENICKKLSNPFRYRMECPEIDCEEGWALLKCGGKNYERAKACFEKVLEVDPENPESSAGYAISAYRLDGFKLATKNHKPFSLLPLRQAVRLNPDNGYIKVLLALKLQDEGQEAEGEKYIEEALANMSSQTYVFRYAAKFYRRKGSVDKALELLKKALQETPTSVLLHHQIGLCYKAQMIQIKEATKGQPRGQNREKLDKMIRSAIFHFESAVEKKPTFEVAHLDLARMYIEAGNHRKAEENFQKLLCMKPVVEETMQDIHFHYGRFQEFQKKSDVNAIIHYLKAIKIEQASLTRDKSINSLKKLVLRKLRRKALDLESLSLLGFVYKLEGNMNEAAEYYERAARLAADFENSVRQGP

binding [5]: no binding (tested: 18.0 μM)
binding [6]: no binding (tested: 12 mg/ml)
binding [7]: no binding (tested: 2 mg/ml (~ 36 μM))
B6: human IFIT1 L457E/L464E (IFIT1^DM-E) (protein, UniProt P09914 1-478)
chain: MSTNGDDHQVKDSLEQLRCHFTWELSIDDDEMPDLENRVLDQIEFLDTKYSVGIHNLLAYVKHLKGQNEEALKSLKEAENLMQEEHDNQANVRSLVTWGNFAWMYYHMGRLAEAQTYLDKVENICKKLSNPFRYRMECPEIDCEEGWALLKCGGKNYERAKACFEKVLEVDPENPESSAGYAISAYRLDGFKLATKNHKPFSLLPLRQAVRLNPDNGYIKVLLALKLQDEGQEAEGEKYIEEALANMSSQTYVFRYAAKFYRRKGSVDKALELLKKALQETPTSVLLHHQIGLCYKAQMIQIKEATKGQPRGQNREKLDKMIRSAIFHFESAVEKKPTFEVAHLDLARMYIEAGNHRKAEENFQKLLCMKPVVEETMQDIHFHYGRFQEFQKKSDVNAIIHYLKAIKIEQASLTRDKSINSLKKLVLRKLRRKALDLESLSLLGFVYKLEGNMNEAEEYYERAERLAADFENSVRQGP
